Experimental findings from US20120244080A1 (GEORGIA STATE UNIVERSITY RESEARCH FOUNDATION, published 2012) are described below.

The chains behind the UniProt entries cited, without tags or fusion partners. Residues count along the entry.
UniProt P32301, residues 22-463: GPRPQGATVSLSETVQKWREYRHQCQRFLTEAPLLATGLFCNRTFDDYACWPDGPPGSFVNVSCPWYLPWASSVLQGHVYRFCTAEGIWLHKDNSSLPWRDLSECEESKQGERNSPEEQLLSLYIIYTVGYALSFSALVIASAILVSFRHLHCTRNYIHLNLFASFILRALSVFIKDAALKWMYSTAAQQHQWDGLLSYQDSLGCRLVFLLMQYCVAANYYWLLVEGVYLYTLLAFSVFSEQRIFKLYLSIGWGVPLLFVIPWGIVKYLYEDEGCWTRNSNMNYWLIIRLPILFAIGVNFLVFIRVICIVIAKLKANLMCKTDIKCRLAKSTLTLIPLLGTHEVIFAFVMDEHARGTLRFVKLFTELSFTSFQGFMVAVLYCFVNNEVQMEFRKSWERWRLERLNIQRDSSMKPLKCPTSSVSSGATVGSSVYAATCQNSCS

These are yes or no findings as the source states them, for the method shown. Some binding calls cover weakened binding; strength is not graded here. Sequences can lack the tags named with a protein.

Experiment [1] has as its target GLP-1 receptor (GLP-1R) on rat insulinoma RINm5F cells (rat (RINm5F rat insulinoma cells)) (UniProt P32301). The experiment can be described thus: summary statement in Example 23, resting on the cell staining of Example 14.
Experiment [2] shares this target. The experiment is described as follows: immunofluorescence staining of cells incubated with 10 µM Cal.GLP for 30 min at 37 °C, detected with rabbit polyclonal anti-calbindin D9k.

B1: Fusion Protein Cal.GLP (human Calbindin D9k-GLP-1 fusion protein) (designed binder)
chain: MSTKKSPEELKRIFEKYAAKEGDPDQLSKDELKLLIQAEFPSLLKGPNTLDDLFQELDKNGHAEGTFTSDVSSYLEGQAAKEFIAWLVKGRG
As for B1, the binding entry in experiment [1] and in experiment [2] was “binds” each time.
